About 110 (0.038%) of roughly 290,000 compounds were called active. This list was built around the results that the source calls inconclusive (neither active nor inactive); the mix of calls is not that of the screen. The call rests on the fitted dose curve; in most records, active means well fitted inhibition curve with a large enough effect in the polarisation, with a control signal flat (not every such curve was filed as active); inconclusive means small, poorly fitted or top-dose-only effect, or effect the other way, or a change in a side signal; inactive means no such curve, though single readings can be large or run the other way; the % refers to the polarisation. Where the call is inconclusive, the potency comes from a doubtful curve fit. A note “side channel” means that the fit belongs to a control or component signal, not to the main read-out.
The compounds below were run against Histone-lysine N-methyltransferase 2A (Homo sapiens) (UniProt Q03164) (assay: qHTS Fluorescence Polarization Assay for Inhibitors of MLL CXXC domain - DNA interaction). Conditions: MLL-CXXC / FITC-HOXA9 DNA fluorescence polarization; series mostly up to 115 µM.
Summary of the method: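 Purified MLL-CXXC (added from a 7 uM solution) was preincubated 5 min at ambient with pinned compounds in 50 mM Tris-HCl pH 7.5, 50 mM NaCl, 1 mM DTT, 0.05% BSA. Fluorescein-labeled HOX-A9 DNA (50 nM solution) followed, 30 min, then polarization read.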
Potency means the concentration at half of the fitted maximal effect.

Chains of the proteins cited; added tags and fusions are not shown.
UniProt Q03164, whole entry, looked up: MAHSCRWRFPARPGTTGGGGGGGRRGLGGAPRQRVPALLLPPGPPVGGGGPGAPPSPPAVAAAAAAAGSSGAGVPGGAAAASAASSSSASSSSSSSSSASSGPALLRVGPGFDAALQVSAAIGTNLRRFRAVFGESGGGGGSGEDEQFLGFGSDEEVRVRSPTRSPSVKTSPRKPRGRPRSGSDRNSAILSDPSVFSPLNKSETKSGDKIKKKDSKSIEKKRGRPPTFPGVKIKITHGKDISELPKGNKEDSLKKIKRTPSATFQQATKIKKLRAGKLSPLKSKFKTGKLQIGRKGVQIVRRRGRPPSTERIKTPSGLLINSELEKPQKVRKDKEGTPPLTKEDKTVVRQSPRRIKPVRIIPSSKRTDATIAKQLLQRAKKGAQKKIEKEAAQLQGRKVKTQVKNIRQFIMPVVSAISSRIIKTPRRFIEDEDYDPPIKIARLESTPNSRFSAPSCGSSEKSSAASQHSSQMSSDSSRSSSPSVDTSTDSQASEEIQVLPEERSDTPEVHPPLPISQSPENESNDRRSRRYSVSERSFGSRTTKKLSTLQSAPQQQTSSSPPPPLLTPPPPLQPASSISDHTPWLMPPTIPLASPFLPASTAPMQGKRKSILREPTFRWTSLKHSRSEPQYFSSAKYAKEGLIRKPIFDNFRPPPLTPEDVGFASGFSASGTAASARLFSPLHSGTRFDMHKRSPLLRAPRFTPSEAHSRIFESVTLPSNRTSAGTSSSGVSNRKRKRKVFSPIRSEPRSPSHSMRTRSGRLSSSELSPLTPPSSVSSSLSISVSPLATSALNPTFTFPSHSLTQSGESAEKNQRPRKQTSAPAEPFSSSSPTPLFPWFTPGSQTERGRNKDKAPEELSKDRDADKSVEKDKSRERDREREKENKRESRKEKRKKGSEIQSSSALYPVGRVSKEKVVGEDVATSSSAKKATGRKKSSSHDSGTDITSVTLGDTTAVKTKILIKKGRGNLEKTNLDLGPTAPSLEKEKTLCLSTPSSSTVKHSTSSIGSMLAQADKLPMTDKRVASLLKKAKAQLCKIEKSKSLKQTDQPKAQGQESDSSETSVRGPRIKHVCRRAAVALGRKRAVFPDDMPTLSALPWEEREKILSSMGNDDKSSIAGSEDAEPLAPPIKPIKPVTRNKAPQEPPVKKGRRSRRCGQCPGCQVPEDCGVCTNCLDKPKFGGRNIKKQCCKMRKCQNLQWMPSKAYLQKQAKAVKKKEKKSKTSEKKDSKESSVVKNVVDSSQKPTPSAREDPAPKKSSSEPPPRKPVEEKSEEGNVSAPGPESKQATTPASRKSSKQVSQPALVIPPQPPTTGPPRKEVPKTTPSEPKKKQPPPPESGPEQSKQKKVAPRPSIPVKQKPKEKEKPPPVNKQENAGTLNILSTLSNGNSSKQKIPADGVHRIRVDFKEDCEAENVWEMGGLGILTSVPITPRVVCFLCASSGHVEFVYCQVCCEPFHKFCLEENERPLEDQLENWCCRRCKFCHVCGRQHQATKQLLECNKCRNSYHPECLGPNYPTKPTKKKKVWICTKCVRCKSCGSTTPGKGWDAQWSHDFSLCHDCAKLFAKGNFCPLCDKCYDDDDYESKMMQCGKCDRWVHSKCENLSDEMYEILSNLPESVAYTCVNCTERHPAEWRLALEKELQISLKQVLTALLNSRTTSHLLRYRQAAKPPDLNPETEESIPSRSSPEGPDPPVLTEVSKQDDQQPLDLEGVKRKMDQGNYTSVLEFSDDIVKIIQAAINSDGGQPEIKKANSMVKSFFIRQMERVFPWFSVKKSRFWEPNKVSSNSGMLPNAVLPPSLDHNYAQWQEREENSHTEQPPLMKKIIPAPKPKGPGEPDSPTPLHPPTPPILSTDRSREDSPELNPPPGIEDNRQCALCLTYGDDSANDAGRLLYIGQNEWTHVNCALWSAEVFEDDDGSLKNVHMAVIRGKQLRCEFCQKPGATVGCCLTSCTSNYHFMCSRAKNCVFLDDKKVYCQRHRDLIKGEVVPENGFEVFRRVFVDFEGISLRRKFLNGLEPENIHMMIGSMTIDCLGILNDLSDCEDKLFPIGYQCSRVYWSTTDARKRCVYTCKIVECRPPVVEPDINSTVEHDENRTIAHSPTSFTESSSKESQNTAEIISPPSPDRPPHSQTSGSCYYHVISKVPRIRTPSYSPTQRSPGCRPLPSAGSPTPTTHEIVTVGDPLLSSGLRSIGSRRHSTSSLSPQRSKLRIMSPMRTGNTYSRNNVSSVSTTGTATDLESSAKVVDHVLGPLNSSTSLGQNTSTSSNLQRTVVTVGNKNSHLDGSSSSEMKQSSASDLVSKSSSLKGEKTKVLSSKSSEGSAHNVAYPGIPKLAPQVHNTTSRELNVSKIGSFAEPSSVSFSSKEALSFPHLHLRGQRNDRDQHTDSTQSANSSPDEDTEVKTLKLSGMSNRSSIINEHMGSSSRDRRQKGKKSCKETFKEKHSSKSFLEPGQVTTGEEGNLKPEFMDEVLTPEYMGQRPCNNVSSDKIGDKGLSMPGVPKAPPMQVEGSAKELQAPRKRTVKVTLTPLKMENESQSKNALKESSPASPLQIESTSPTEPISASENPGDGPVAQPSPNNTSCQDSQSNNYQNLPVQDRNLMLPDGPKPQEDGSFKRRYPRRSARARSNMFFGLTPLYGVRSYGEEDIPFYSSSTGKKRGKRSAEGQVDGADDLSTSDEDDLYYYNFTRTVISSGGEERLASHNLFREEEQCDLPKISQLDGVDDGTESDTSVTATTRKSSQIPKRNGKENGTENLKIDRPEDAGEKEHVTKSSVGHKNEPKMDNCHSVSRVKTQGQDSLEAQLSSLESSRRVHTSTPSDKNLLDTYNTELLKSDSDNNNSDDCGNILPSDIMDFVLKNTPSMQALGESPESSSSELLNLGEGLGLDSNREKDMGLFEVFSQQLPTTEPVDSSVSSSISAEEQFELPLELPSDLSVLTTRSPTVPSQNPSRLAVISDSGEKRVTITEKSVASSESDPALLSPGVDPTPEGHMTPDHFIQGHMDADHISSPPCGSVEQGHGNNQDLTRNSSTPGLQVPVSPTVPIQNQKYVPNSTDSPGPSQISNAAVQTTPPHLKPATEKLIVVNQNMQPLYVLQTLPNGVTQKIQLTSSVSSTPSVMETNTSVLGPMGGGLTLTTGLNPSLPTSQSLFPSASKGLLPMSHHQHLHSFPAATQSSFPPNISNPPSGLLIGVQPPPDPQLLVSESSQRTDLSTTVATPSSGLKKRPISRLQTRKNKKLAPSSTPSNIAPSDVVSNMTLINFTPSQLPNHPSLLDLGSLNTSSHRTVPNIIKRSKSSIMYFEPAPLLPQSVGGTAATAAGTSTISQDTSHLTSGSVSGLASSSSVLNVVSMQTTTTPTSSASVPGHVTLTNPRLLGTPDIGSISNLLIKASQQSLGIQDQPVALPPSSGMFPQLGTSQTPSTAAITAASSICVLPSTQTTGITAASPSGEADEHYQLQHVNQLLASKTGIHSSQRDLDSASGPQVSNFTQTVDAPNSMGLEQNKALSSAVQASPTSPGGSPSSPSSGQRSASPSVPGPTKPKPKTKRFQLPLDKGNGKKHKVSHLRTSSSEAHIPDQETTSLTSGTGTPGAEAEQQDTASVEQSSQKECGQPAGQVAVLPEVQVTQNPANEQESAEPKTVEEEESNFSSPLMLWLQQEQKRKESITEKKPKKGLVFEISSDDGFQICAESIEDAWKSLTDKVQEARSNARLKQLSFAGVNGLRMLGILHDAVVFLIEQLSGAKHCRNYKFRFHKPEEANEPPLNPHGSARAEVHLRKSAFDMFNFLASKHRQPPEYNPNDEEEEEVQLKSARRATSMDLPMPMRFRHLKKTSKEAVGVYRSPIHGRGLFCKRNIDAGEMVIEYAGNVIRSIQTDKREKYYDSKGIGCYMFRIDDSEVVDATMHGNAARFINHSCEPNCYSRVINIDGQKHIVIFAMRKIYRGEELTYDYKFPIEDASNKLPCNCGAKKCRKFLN

Row | SMILES | Potency
1 | Cc1cc(C)nc(NC(=O)CSc2ccccn2)n1 | inconclusive: 63.1 µM [fluorescent, side channel, single point]
2 | Cc1ccc(-c2nc(N)s[n+]2-c2ccccc2)cc1 | inconclusive: 12.6 µM [fluorescent, side channel, partial curve]
3 | CCOC(=O)C1=C(C)NC2=C(C(=O)C(C(=O)OCC)C(c3cccc(OC)c3)C2)C1c1ccccn1 (centres undefined) | inactive
4 | COc1ccc(C2C(C(=O)c3cccs3)=C(O)C(=O)N2c2nncs2)cc1 (centres undefined) | inconclusive: 35.5 µM [fluorescent, side channel, partial curve]
5 | O=C1CC(c2ccc(Cl)c([N+](=O)[O-])c2)c2ccc3ccccc3c2N1 (centres undefined) | inconclusive: 31.6 µM [fluorescent, side channel, partial curve]
6 | CCCCN(CC)CCCNC(=O)c1cn(C)c(=O)c2c1c1ccccc1n2C | inconclusive: 89.1 µM [fluorescent, single point]
7 | O=C(NNS(=O)(=O)c1ccc(F)cc1F)C1Cc2c(ccc3ccccc23)O1 (centres undefined) | inactive
8 | CCN(CC)CCNC(=O)c1cc2c(=O)n(C)c3ccccc3c2s1 | inconclusive: 70.8 µM [inhibitor, single point]
9 | O=C1c2cccc3c(O)ccc(c23)C(=O)N1Cc1ccco1 | inconclusive: 2.82 µM [fluorescent, side channel, full curve]
10 | Cc1c(C#N)c(O)n(C)c(=O)c1N=Nc1ccc(S(N)(=O)=O)cc1 | inconclusive: 15.8 µM [quencher, side channel, full curve, poor fit]
11 | CC(=O)Nc1ccc(NCc2cccs2)cc1 | inactive
12 | COc1cccc(OC)c1C(=O)NC(=S)N1CCCCC1c1cccnc1 (centres undefined) | inconclusive: 79.4 µM [fluorescent, side channel, single point]
13 | COc1ccccc1OCCNC(=O)C1CCCCC1 | inconclusive: 79.4 µM [inhibitor, partial curve, poor fit]
14 | O=C(O)c1ccc2c(c1)C(=O)N(N1C(=O)c3ccccc3C1=O)C2=O | inconclusive: 25.1 µM [fluorescent, side channel, single point]
15 | CCSc1nnc(N2C(=O)C(O)=C(C(=O)c3ccco3)C2c2cccc(OC)c2)s1 (centres undefined) | inconclusive: 1.12 µM [fluorescent, side channel, full curve]
16 | COc1cc(CNCCN(C)C)c(Br)cc1OC1CCCC1 | inconclusive: 89.1 µM [inhibitor, single point]
17 | Cc1onc(-c2ccccc2)c1C(=O)NC(=S)NNC(=O)c1ccc(O)cc1 | inactive
18 | O=C(O)CCC(=O)c1ccc2ccc3cccc4ccc1c2c34 | inconclusive: 35.5 µM [fluorescent, single point]
19 | CC(=O)c1ccc(OCc2cc(C(=O)N3CCC(Oc4ccccc4C)CC3)no2)cc1 | inconclusive: 11.2 µM [quencher, side channel, single point]
20 | Cn1c(=O)c(-c2ccccc2)c(O)c2ccccc21 | inconclusive: 2.51 µM [fluorescent, side channel, full curve]

Single values from the list:
O=C1c2cccc3c(O)ccc(c23)C(=O)N1Cc1ccco1 – Potency: inconclusive: 2.82 µM [fluorescent, side channel, full curve]
CCOC(=O)C1=C(C)NC2=C(C(=O)C(C(=O)OCC)C(c3cccc(OC)c3)C2)C1c1ccccn1 (centres undefined) – Potency: inactive
COc1cccc(OC)c1C(=O)NC(=S)N1CCCCC1c1cccnc1 (centres undefined) – Potency: inconclusive: 79.4 µM [fluorescent, side channel, single point]

Further structures

Row | SMILES | Potency
21 | Cc1cc(Nc2cccc([N+](=O)[O-])c2)c2cccc(C)c2n1 | inconclusive: 100 µM [quencher, side channel, partial curve]
22 | COc1ccc(CC(=O)NCC2(c3ccc(OC)c(OC)c3)CCOCC2)cc1 | inconclusive: 70.8 µM [fluorescent, side channel, single point]
23 | CCCN1CC=C2C(C#N)=C(N)C(C#N)(C#N)C(c3cccc(OC)c3OC)C2C1 (centres undefined) | inconclusive: 1.12 µM [fluorescent, side channel, partial curve, poor fit]
24 | CCOc1cc(/C=C2/SC(=O)N(CC(=O)N3CCc4ccccc4C3)C2=O)ccc1OCC(=O)O | inconclusive: 8.91 µM [inhibitor, partial curve]
25 | CCOC(=O)C(=O)Nc1cc([N+](=O)[O-])ccc1C | inconclusive: 44.7 µM [inhibitor, single point]
26 | Cc1ccc(NC(=O)CN(C)c2ccc(S(=O)(=O)N3CCN(C)CC3)cn2)cc1 | inactive
27 | O=C(O)c1ccc(COc2ccc3c4c(c(=O)oc3c2)CCC4)o1 | inactive
28 | O=c1c2ccccc2sn1-c1cc(S(=O)(=O)N2CCOCC2)ccc1N1CCCC1 | inactive
29 | Cc1sc(-c2ccncc2)nc1OC(=O)c1ccc(F)cc1F | inconclusive: 31.6 µM [fluorescent, side channel, partial curve]
30 | O=C(/C=C/c1ccc(F)cc1)NCc1ccco1 | inactive
31 | CC1(C(=O)OCC(=O)Nc2ccc(C(N)=O)cc2)CC1(Cl)Cl (centres undefined) | inconclusive: 2.82 µM [quencher, side channel, full curve]
32 | COc1cccc(/C=C2\Oc3cc(OCC(=O)N4CCC[C@H]4C(=O)O)ccc3C2=O)c1 | inconclusive: 35.5 µM [inhibitor, single point]
33 | COC(=O)c1cnn(-c2ccc(F)cc2F)c1/C=N/NC(=S)NC(C)(C)C | inconclusive: 7.94 µM [quencher, side channel, single point]
34 | COc1ccc(C(O)P(=O)(OC(C)C)OC(C)C)cc1OC (centres undefined) | inconclusive: 17.8 µM [inhibitor, partial curve]
35 | O=C(/C=C/Nc1ccc([N+](=O)[O-])cc1Br)c1cccc2ccccc12 | inconclusive: 44.7 µM [fluorescent, side channel, single point]
36 | CC(C)C1=Nc2cccc3cccc(c23)N1 | inactive
37 | CCOc1ccc(CN2CCCC(CO)(Cc3ccc(F)cc3)C2)cc1 (centres undefined) | inconclusive: 8.91 µM [quencher, side channel, single point]
38 | COc1ccc(-c2cc(-c3nnc(COC(=O)c4ccc(O)cc4)o3)c3ccccc3n2)cc1OC | inconclusive: 35.5 µM [fluorescent, side channel, partial curve]
39 | CN(C(=O)c1ccc(NC(=O)c2ccco2)cc1)c1ccccc1 | inconclusive: 39.8 µM [quencher, side channel, single point]
